Reference: the supplement of paper PMC3334620
Whole data set: some 33,000 sequences, median “E-score (-0.5 to 0.5)” near -0.016, cut for the highest 2% near 0.3. The list shows a part of the results.

These sequences were tested against T1, Yer184c (UniProt P39961) (assay: PBM E-score (8-mer binding enrichment) (E-score (-0.5 to 0.5)); higher = stronger / more preferred TF binding). Details: protein concentration: 100 nM; construct: GST-full length.
T1 sequence: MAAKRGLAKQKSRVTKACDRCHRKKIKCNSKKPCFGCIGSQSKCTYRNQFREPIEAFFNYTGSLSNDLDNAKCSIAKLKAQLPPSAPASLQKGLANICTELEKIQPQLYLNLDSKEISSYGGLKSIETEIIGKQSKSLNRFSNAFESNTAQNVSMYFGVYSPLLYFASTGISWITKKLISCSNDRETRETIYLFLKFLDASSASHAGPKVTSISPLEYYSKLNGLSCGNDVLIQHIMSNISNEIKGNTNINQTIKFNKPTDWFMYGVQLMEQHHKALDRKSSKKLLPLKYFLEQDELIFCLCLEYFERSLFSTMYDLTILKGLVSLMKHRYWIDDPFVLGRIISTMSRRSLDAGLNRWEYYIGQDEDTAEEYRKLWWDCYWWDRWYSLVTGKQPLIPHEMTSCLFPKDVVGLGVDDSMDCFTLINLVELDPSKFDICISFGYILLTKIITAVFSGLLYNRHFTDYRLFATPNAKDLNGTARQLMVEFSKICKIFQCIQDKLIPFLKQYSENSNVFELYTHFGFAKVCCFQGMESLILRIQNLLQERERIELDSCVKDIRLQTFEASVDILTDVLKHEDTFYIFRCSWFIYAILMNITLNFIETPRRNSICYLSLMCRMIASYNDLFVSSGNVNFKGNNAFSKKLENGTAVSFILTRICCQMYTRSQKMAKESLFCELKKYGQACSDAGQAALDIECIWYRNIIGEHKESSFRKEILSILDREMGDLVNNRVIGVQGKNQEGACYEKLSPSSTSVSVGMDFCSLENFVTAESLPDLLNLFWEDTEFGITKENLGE
Outline: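 Bound GST-tagged yeast transcription factors, applied at about 100-200 nM to double-stranded universal all-10-mer Agilent arrays, were detected with fluorescent anti-GST. Scans were normalised with masliner. A modified Wilcoxon-Mann-Whitney statistic, the E-score, was assigned to each ungapped eight-base word pooled with its reverse complement by the Universal PBM Analysis Suite.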

Sequence	PBM E-score
AGAGGGAC	-0.159
AAGTGACT	-0.121
CCTGGTGA	-0.146
CAATCTCC	-0.0485
AACCCGAC	0.0624
CAACAATA	0.06
ACCCCCCT	-0.402
TACTGTCA	-0.0937
AGGATTCA	-0.194
CTCCAAGA	-0.133
CTGGAGTC	-0.31
CTACCGAA	0.105
CGCCTAAC	-0.0428
GCTAGTGA	-0.0791
CCGGTTAG	0.205
CGGCGCAG	0.129
AGTACCAC	-0.188
ACCCTCAT	-0.25
AACGAGTG	-0.0309
TAACAGGA	0.0488
ATACTCCG	0.321
CGAAATGC	0.0794
GCCGATAC	0.13
CACGCATC	0.0612
AGGAATGA	0.0599

Sequence	PBM E-score
GTGCGACA	-0.0806
AGTTAGTC	-0.0517
ACGCAAGT	-0.0717
CGTGGGCA	-0.291
CGTATCGA	-0.123
AACATTGA	0.101
CCACTCGA	-0.00486
CGTGAGAA	0.0698
CGCGGGAC	0.127
CATGGCAC	-0.0107
CACTTCCG	0.137
AGTTAGGA	0.0742
GGCTAGTA	0.108
ACTTCCCG	0.148
ACCCTCGT	-0.116
AATTGCGC	0.16
CATGGTAA	-0.113
ACGTATAC	-0.0033
CTTTCCAC	-0.06
ATACCGCG	0.105
ATTTATTG	-0.0214
GTTGGACA	-0.0236
ATAGAAAG	-0.0692
GAGCGCTC	0.00754
TACTATGA	0.142

Sequence	PBM E-score
AGTCGGAC	0.0344
CTGCCGCC	-0.0785
GTTGCCTA	-0.0964
GACCATCA	-0.0725
CAAGTTGA	-0.0734
AAAGTTAA	0.0874
AAGTAAGT	0.0312
AACGGCAG	0.147
ACTTATAC	0.0816
ATTGTGTC	0.0892
GATCTCGC	-0.0742
CAATTCTC	0.0231
GGAGTTTA	0.127
AACGTTCC	0.013
CTTGAGAA	-0.116
ATTTCGTA	-0.0477
AACTTCTC	0.0331
CCGATTTC	0.14
CCCCGCCC	0.169
ATACCAAA	0.11
ATGCACTC	-0.245
ACAGATAG	-0.00985
GCTGGGTA	-0.192
AACAGTAT	0.0786
CCATTGAG	-0.0263

Sequence	PBM E-score
ACTTATGG	-0.141
ACCGGGCT	0.145
AGATACAC	-0.0908
ACTAATTA	0.183
GCCGATCA	0.226
GATTCGAA	0.189
CACCATCC	-0.292
CATCACAC	-0.0415
AGATTGCT	-0.176
AAATCAGC	0.0662
GAACAATC	0.172
CATGCAGG	-0.244
CTTCGCCC	-0.289
GTTGAATA	0.125
AGTGATGC	0.00056
CCAACCGG	0.215
AGTTCCTC	-0.0432
TGGACCAA	-0.0558
ATAGACAC	0.0707
CCCATAAG	-0.262
AGCCTCCT	-0.163
ACCCTAGG	-0.0568
AATGGCTA	-0.0331
GGGTATGA	-0.0312
CCAAAAGA	0.204

Sequence	PBM E-score
AGGCGAGC	-0.186
GTTAGCAA	0.0352
CACCGACG	0.182
AAATGAGC	0.038
ATATCCAC	0.0617
CGTACCTC	-0.136
ATTCGGCG	0.282
AGGCGTAT	-0.0405
CAACGCAA	0.143
GGCGAACA	0.0503
ACATGGGG	-0.216
CGTCGTCC	-0.0115
CCCGGCGG	0.224
GCTAACAC	0.00951
GTCCGGCA	0.285
ACGTTTTC	0.131
GTCTGAAC	-0.0367
AAGAATTC	0.108
AAGGCGAA	-0.0849
ATTAAAAA	0.323
AGGCAACC	-0.0513
AACCAGGC	0.0262
TCGTGAGA	0.0625
CTCGCACC	-0.0508
AAAGGCGC	-0.0168

Sequence	PBM E-score
TCAAGTCA	0.00563
AAGAAGTA	0.0582
AAGATACA	0.0723
ATATGGGG	-0.278
CACCAAGC	-0.224
AGAGAGCG	-0.162
GGTCTGTA	0.0177
ATGGGGGC	-0.36
CAGTCCCC	-0.406
ACTAGACG	-0.0203
CACAAATG	-0.0328
GTACGGCA	0.0888
GCGGACCC	0.11
CAACGGAA	0.36
ATATGAAC	0.0621
CCAGTGAC	-0.282
ACCGGCAT	0.293
GTCACGGA	0.172
CAGATTGG	-0.188
CTTCACTA	0.0629
ACGCTAGA	-0.249
ACCGAGGA	0.0869
TAGTGCCA	-0.137
TAGTAAAA	0.224
ATCAAGTA	-0.133

Sequence	PBM E-score
CCATACGA	-0.065
ACAATCTG	-0.0833
AGTATGTA	-0.00556
ACACCGGC	0.27
CGACTGTA	-0.2
TATCCTAA	0.123
AAGCAGTC	-0.115
GTCAATGA	-0.177
AAAGACTT	-0.0513
CTGAGATA	0.0957
ACTGAGCT	-0.143
CAAGGCGC	-0.041
AAAATGCG	0.148
GGGTGCAA	0.0462
TAAAGATA	0.188
GGGAAAGA	-0.111
TATTCTGA	-0.118
CTATGGAG	-0.354
AAGTTTAC	0.121
GCTTGAGA	-0.153
AGTACGGC	0.0572
ATAGTTTA	0.0274

39 successive records out of the list so far, quoted:
Sequence	PBM E-score
CAGTCCCC	-0.406
ACTAGACG	-0.0203
CACAAATG	-0.0328
GTACGGCA	0.0888
GCGGACCC	0.11
CAACGGAA	0.36
ATATGAAC	0.0621
CCAGTGAC	-0.282
ACCGGCAT	0.293
GTCACGGA	0.172
CAGATTGG	-0.188
CTTCACTA	0.0629
ACGCTAGA	-0.249
ACCGAGGA	0.0869
TAGTGCCA	-0.137
TAGTAAAA	0.224
ATCAAGTA	-0.133
CCATACGA	-0.065
ACAATCTG	-0.0833
AGTATGTA	-0.00556
ACACCGGC	0.27
CGACTGTA	-0.2
TATCCTAA	0.123
AAGCAGTC	-0.115
GTCAATGA	-0.177
AAAGACTT	-0.0513
CTGAGATA	0.0957
ACTGAGCT	-0.143
CAAGGCGC	-0.041
AAAATGCG	0.148
GGGTGCAA	0.0462
TAAAGATA	0.188
GGGAAAGA	-0.111
TATTCTGA	-0.118
CTATGGAG	-0.354
AAGTTTAC	0.121
GCTTGAGA	-0.153
AGTACGGC	0.0572
ATAGTTTA	0.0274
